Publication PMC11603412, “Anti-hepatocellular carcinoma activities of novel hydrazone derivatives via downregulation of interleukin-6” (RSC Advances, 2024)

System: HepG2 cell line
Assay: MTT cytotoxicity assay, HepG2
Type: cell-based, human
Conditions: IC50 liver mesenchymal stem cells divided by IC50 HepG2
Method: The HepG2 cell line was obtained from ATCC (Rockville, MD). Liver mesenchymal stem cells were harvested from liver biopsy according to previously published protocols.[34] Cells were grown in DMEM media with 10% fetal bovine serum (FBS), 100 U per mL penicillin, and […] streptomycin at 37 °C, 5% CO2. The MTT assay kit, which relies on succinate dehydrogenase in living cells' mitochondria to convert the 3-(4,5-dimethylthiazol-2-yl)-2,5-diphenyltetrazolium bromide (MTT) dye to violet formazan crystals, was used to calculate the vitality of individual cells. 6000 cells per well were seeded in the 96-well plate containing, which were then incubated for 24 h. Different concentrations of drug were dissolved in DMEM and then added to the wells to replace the culture medium. The medium was discarded after incubation for 24 h under the same conditions, and 100 μL of MTT (2 mg mL^−1) were added. After 3 h of incubation at 37 °C, the generated formazan crystals generated were dissolved in 50 μL of DMSO. The optical density was then measured using a Stat Fax ELISA plate reader (Romer Labs, Getzersdorf, Austria) at 570 nm with a reference wavelength of 630 nm after incubating the plate at 37 °C for 15 min. As a positive control, the tyrosine kinase inhibitor sorafenib (Bayer, Germany) was employed. DMSO was used as a solvent and its final concentration was less than 0.2%. SI and IC50 were calculated. Triplicates of each in vitro test were performed.[33]

Compared with O=C1CCC(=O)N1N=C(C1CC1)C1CC1 [Compound 16], O=C1Nc2ccccc2/C1=N/N=C(C1CC1)C1CC1 [Compound 4, 3-(dicyclopropylmethylene)hydrazone indolin-2-one] is lower in SI: 3.2 for the first, 1.86 for the second.

Going from O=C1C(=O)c2ccccc2C2=C1NNC(C1CC1)(C1CC1)O2 [Compound 13] to NC1=CC(=O)NNC1(C1CC1)C1CC1 [Compound 18], the SI falls from 1.38 to 1.11.

Going from NC1=NNC(c2ccccc2O)N1/N=C\c1ccccc1O (stereo not shown) [Compound 8a] to Cc1nc2ccccc2c(=O)n1NC(=S)N=C(C1CC1)C1CC1 [Compound 20], the SI falls from 1.6 to 1.26.

CNC(=O)c1cc(Oc2ccc(NC(=O)Nc3ccc(Cl)c(C(F)(F)F)c3)cc2)ccn1 [Sorafenib, reference compound] showed an SI of 3.9.
